Experimental data published in paper doi:10.1101/329136.
Results are given in words; binding and its absence hold for the method and conditions named. Some binding calls cover weakened binding; strength is not graded here.

Amino acid sequences for entries named in this document (tags omitted). Residues count along the entry.
IpaA 483-633 containing all three VBS1-3 (A483) (P18010, residues 483-633): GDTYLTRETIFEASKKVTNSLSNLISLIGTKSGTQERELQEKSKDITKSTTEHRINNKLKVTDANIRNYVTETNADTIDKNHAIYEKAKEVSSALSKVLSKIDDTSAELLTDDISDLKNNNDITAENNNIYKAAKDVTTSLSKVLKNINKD
IpaA 524-633 containing only IpaA VBS1-2 (A524) (P18010, residues 524-633): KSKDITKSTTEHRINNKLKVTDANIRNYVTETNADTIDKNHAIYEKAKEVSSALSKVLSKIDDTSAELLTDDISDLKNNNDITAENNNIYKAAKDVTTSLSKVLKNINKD
UniProt P18206, residues 1-258: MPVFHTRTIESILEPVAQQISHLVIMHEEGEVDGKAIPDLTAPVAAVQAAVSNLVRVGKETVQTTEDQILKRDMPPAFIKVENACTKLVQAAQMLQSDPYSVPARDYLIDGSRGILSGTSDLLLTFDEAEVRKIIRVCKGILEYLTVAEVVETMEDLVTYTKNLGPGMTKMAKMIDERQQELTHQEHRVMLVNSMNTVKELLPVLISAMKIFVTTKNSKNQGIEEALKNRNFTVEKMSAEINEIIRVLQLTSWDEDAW

Assays:
[1] = target: IpaA 483-633 containing all three VBS1-3 (A483) (Shigella flexneri) (UniProt P18010); assay: SEC-MALS
[2] = target: IpaA 524-633 containing only IpaA VBS1-2 (A524) (Shigella flexneri) (UniProt P18010); assay: SEC-MALS
vinculin D1 domain (vD1) = vinculin D1 domain (vD1) (UniProt P18206); assay: native gel or EMSA

Molecule | binding (vinculin D1 domain (vD1)) | further results
IpaA 483-633 containing all three VBS1-3 (A483) (from UniProt P18010 483-633) (domain or fragment) | – | binding [1]: no binding (tested: 20 μM)
IpaA 524-633 containing only IpaA VBS1-2 (A524) (from UniProt P18010 524-633) (domain or fragment) | – | binding [2]: no binding (tested: 20 μM)
TRETIFEASKKVTNSLSNLISLIGT [IpaA VTBS peptide (488-512)] | binds | –
TRETIFEASKEVTNSLSNLISLIGT [IpaA VTBS K498E peptide] | binds | –
TRETIFEKSKKVTNSLSNLISLIGT [IpaA VTBS A495K peptide] | binds | –
